# The other results are listed elsewhere or left out. The main result of the screen is listed elsewhere. These columns were measured beside it and carry no call. The list favours compounds with an active or inconclusive main result. Words in brackets tell the shape of the fitted curve; partial curves, single points and poor fits give uncertain potencies.
# Experiment: qHTS Assay for Lipid Storage Modulators in Drosophila S3 Cells;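 for cell number change: cells counted by Cell Tracker Red CMTPX staining in the red channel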
# Details: BODIPY lipid droplet fluorescence, 18-24 h; for cell number change: measured here: cell count max response, cells fed with added oleic acid
# Outline: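 Drosophila S3 cells got compounds at several concentrations plus oleic acid (400 uM solution). Laser-scanning cytometry with 488 nm excitation read lipid droplets at 500-530 nm and cells at 575-640 nm. Percent activity was relative to 20 uM Triacsin C.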
# [1] = measured here: lipid fluorescence (Fed channel) AC50, cells fed with added oleic acid
# [2] = measured here: cell number channel AC50, cells fed with added oleic acid
SMILES,AC50 [1],AC50 [2],cell number change [%]
NC(=O)c1cccnc1,"23.1 µM [falling, single point]",,
O=C(NCCc1ccccn1)C1CCCN(S(=O)(=O)Cc2ccccc2)C1 (stereo not drawn),"6.51 µM [falling, single point]","1.84 µM [falling, single point]",
COc1ccc(CN(C)CC(=O)NC(=O)NCc2ccccc2)c(OC)c1,"18.4 µM [rising, single point]","8.2 µM [rising, partial curve]",37.2
O=C1/C(=C/c2ccc(O)cc2)SC(=S)N1Cc1cccnc1,"29.1 µM [rising, single point]","4.11 µM [falling, partial curve]",40
CCCCC(=O)Nc1ccc(NC(=O)c2ccc3c(c2)OCO3)cc1OC,"0.206 µM [rising, partial curve]","0.206 µM [rising, full curve]",
O=C1c2ccccc2C2=Nc3ccccc3SC(c3ccc(Cl)cc3)C12 (stereo not drawn),"25.9 µM [falling, single point]","20.6 µM [falling, single point]",-37.3
COc1cnc(-c2ccccn2)nc1Oc1ccc(C(C)(C)C)cc1,,"18.4 µM [falling, single point]",-39.7
O=C(/C=C/c1ccc2c(c1)OCO2)N1CCN(c2ccccc2F)CC1,"23.1 µM [rising, single point]","0.82 µM [rising, full curve, poor fit]",25.4
Cc1ccc(S(=O)(=O)N2CCC(C(=O)OCC(=O)NC(C)c3ccc(F)cc3)CC2)cc1C (stereo not drawn),"2.59 µM [rising, partial curve]","6.51 µM [falling, single point]",9.96
CC1CCCN(Cc2c(O)ccc3c(=O)c(-c4nc5ccccc5s4)c(N)oc23)C1 (stereo not drawn),"4.11 µM [falling, partial curve]",,-29.1
Cc1nnc(NC(=O)CSc2ncc(-c3ccccc3)[nH]2)s1,"6.51 µM [rising, single point]",,25
C=CCn1c(C)cc(C(=O)COc2nncc3ccccc23)c1C,"2.91 µM [falling, full curve]","2.31 µM [falling, partial curve, poor fit]",
CCCn1ccnc1SCC(=O)Nc1c(C)n(C)n(-c2ccccc2)c1=O,"0.82 µM [falling, full curve]","0.82 µM [falling, full curve]",-64.2
CN(CC(=O)Nc1ccccc1Cl)C(=O)COC(=O)c1nc(Cl)ccc1Cl,"32.6 µM [rising, single point]",,
Cc1nc2scc(C)n2c(=O)c1S(=O)(=O)NCc1ccccc1,,,-11
COc1cccc(NC(=O)CCNS(=O)(=O)c2ccc(Br)s2)c1,,,25.2
Cc1nn(-c2ccccc2)c(Cl)c1/C=C(\C#N)C(=O)NC(C)C,,,-8.27
CC(C)C(C)NC(=O)COC(=O)c1cccc(C(=O)OCC(=O)NC(C)C(C)C)n1 (stereo not drawn),"29.1 µM [falling, single point]",,-27.5
Cc1ccc(N2CC(C(=O)N/N=C/c3c(F)cccc3Cl)CC2=O)cc1 (stereo not drawn),"20.6 µM [rising, single point]",,26.5

SMILES,AC50 [1],AC50 [2],cell number change [%]
CC1CCCC(C)N1/N=C/c1cccc([N+](=O)[O-])c1 (stereo not drawn),"0.146 µM [falling, full curve, poor fit]","5.17 µM [rising, partial curve, poor fit]",34.4
COc1cc(CNc2ccccc2)c([N+](=O)[O-])cc1OC,"29.1 µM [falling, single point]",,-2.93
COCCN(C(=O)COC(=O)c1cccc2ccccc12)c1c(N)n(Cc2ccccc2)c(=O)[nH]c1=O,,"3.66 µM [falling, partial curve, poor fit]",-8.01
CCOCCCN(C(=O)CCC(=O)Nc1cc(C)on1)C(C(=O)NC(C)(C)CC)c1cccc(OC)c1OC (stereo not drawn),,,-5.42
COc1ccccc1-n1cc(CN2CCCC(CO)(Cc3cccc(Cl)c3)C2)cn1 (stereo not drawn),,,2.19
O=C(OCC(=O)N1CCC(Cc2ccccc2)CC1)c1ccc(CO)cc1,"0.00517 µM [falling, full curve, poor fit]","29.1 µM [falling, single point]",-46.7
CCCCn1c(N)c(N(CC(C)C)C(=O)CCNC(=O)c2ccc([N+](=O)[O-])cc2)c(=O)[nH]c1=O,,"23.1 µM [rising, partial curve]",151
CCN(CCN1CCCC1)C(=O)C1CCC(=O)N(CCCN2CCOCC2)C1 (stereo not drawn),"35.5 µM [falling, single point]",,-11.8
CCOC(=O)NCc1ccc(CNC(=O)OCC)cc1,,,7.55
CC1=CC(C)C2C(=O)N(c3ccccc3)C(=O)C2C1 (stereo not drawn),"3.66 µM [falling, full curve]",,-2.45
Cn1c(CCn2ccccc2=O)nc2cc(NC(=O)COc3ccccc3)ccc21,"3.66 µM [rising, full curve]",,-7.93
COc1cccc(-c2cc(=O)c3cc(NC(=O)c4ccc(Cl)cc4)ccc3[nH]2)c1,"6.51 µM [rising, partial curve]",,14.6
CCOC(=O)c1oc2ccccc2c1CN1CCOCC1,"16.4 µM [rising, single point]",,
O=C(COc1ccc(Br)cc1)Nc1ccc2oc(=O)ccc2c1,"0.82 µM [rising, full curve, poor fit]",,6.65
COc1ccc(-c2noc(CN(C)C(=O)c3ccc4c(c3)OCO4)n2)cc1OC,,,19.2
CCOC(=O)c1cc(-c2ccc(Cl)s2)[nH]n1,"13 µM [falling, single point]",,-27.6
COc1ccc([N+](=O)[O-])cc1NC(=O)Cc1ccc(C)cc1,"1.46 µM [rising, full curve, poor fit]","0.326 µM [rising, full curve, poor fit]",31.8
O=S(=O)(Nc1ccc(S(=O)(=O)Nc2nccs2)cc1)c1ccc2c(c1)OCCO2,"20.6 µM [falling, partial curve]",,5.6

# Structures from the list above that contain an aryl thioether with sulfur outside any ring (two):
SMILES,AC50 [1],AC50 [2],cell number change [%]
Cc1nnc(NC(=O)CSc2ncc(-c3ccccc3)[nH]2)s1,"6.51 µM [rising, single point]",,25
CCCn1ccnc1SCC(=O)Nc1c(C)n(C)n(-c2ccccc2)c1=O,"0.82 µM [falling, full curve]","0.82 µM [falling, full curve]",-64.2

# — PubChem BioAssay AID2685 (National Center for Advancing Translational Sciences (NCATS), 2010)
